The other results are listed elsewhere or left out.
Legend:
Test in all cases: glycan array binding signal (z-score within array); higher = stronger binding
Conditions in all cases: glycan notation: IUPAC condensed, linker removed
[1] = biological target: Gal(b1-3)[Neu5Ac(a2-6)]GalNAc
How it was run: (§1)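 The Consortium for Functional Glycomics database supplied 3228 glycan arrays, of which those lacking an available protein sequence were dropped. The binding signal, a within-array Z-score, was averaged across arrays of the same protein sequence and across linkers. Negative scores can be read as non-binding.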

[2] = biological target: Gal(b1-3)[Neu5Ac(a2-6)]GlcNAc(b1-6)Gal(b1-4)Glc
How it was run: as §1

[3] = biological target: Gal(b1-3)[Neu5Ac(b2-6)]GalNAc
How it was run: as §1

[4] = biological target: Gal(b1-4)GalNAc(a1-3)[Fuc(a1-2)]Gal(b1-4)GlcNAc
How it was run: as §1

[5] = biological target: Gal(b1-4)GalNAc(b1-3)[Fuc(a1-2)]Gal(b1-4)GlcNAc
How it was run: as §1

Gal(b1-4)Glc = biological target: Gal(b1-4)Glc
How it was run: as §1

Gal(b1-4)Glc6S = biological target: Gal(b1-4)Glc6S
How it was run: as §1

Gal(b1-4)GlcNAc = biological target: Gal(b1-4)GlcNAc
How it was run: as §1

[6] = biological target: Gal(b1-4)GlcNAc(a1-6)Gal(b1-4)GlcNAc
How it was run: as §1

[7] = biological target: Gal(b1-4)GlcNAc(b1-2)Man(a1-3)Man(b1-4)GlcNAc(b1-4)GlcNAc
How it was run: as §1

[8] = biological target: Gal(b1-4)GlcNAc(b1-2)Man(a1-3)[Gal(b1-4)GlcNAc(b1-2)Man(a1-6)]Man(b1-4)GlcNAc(b1-4)GlcNAc
How it was run: as §1

[9] = biological target: Gal(b1-4)GlcNAc(b1-2)Man(a1-3)[Gal(b1-4)GlcNAc(b1-2)Man(a1-6)]Man(b1-4)GlcNAc(b1-4)[Fuc(a1-6)]GlcNAc
How it was run: as §1

[10] = biological target: Gal(b1-4)GlcNAc(b1-2)Man(a1-3)[GlcNAc(b1-2)Man(a1-6)]Man(b1-4)GlcNAc(b1-4)GlcNAc
How it was run: as §1

[11] = biological target: Gal(b1-4)GlcNAc(b1-2)Man(a1-3)[Man(a1-6)]Man(b1-4)GlcNAc(b1-4)GlcNAc
How it was run: as §1

[12] = biological target: Gal(b1-4)GlcNAc(b1-2)Man(a1-6)Man(b1-4)GlcNAc(b1-4)GlcNAc
How it was run: as §1

[13] = biological target: Gal(b1-4)GlcNAc(b1-2)Man(a1-6)[GlcNAc(b1-2)Man(a1-3)]Man(b1-4)GlcNAc(b1-4)GlcNAc
How it was run: as §1

[14] = biological target: Gal(b1-4)GlcNAc(b1-2)Man(a1-6)[Man(a1-3)]Man(b1-4)GlcNAc(b1-4)GlcNAc
How it was run: as §1

[15] = biological target: Gal(b1-4)GlcNAc(b1-2)[Gal(b1-4)GlcNAc(b1-4)]Man(a1-3)[Gal(b1-4)GlcNAc(b1-2)Man(a1-6)]Man(b1-4)GlcNAc(b1-4)GlcNAc
How it was run: as §1

[16] = biological target: Gal(b1-4)GlcNAc(b1-2)[Gal(b1-4)GlcNAc(b1-4)]Man(a1-3)[Gal(b1-4)GlcNAc(b1-2)[Gal(b1-4)GlcNAc(b1-6)]Man(a1-6)]Man(b1-4)GlcNAc(b1-4)GlcNAc
How it was run: as §1

[17] = biological target: Gal(b1-4)GlcNAc(b1-3)Gal(b1-3)GlcNAc
How it was run: as §1

[18] = biological target: Gal(b1-4)GlcNAc(b1-3)Gal(b1-4)Glc
How it was run: as §1

[19] = biological target: Gal(b1-4)GlcNAc(b1-3)Gal(b1-4)GlcNAc
How it was run: as §1

[20] = biological target: Gal(b1-4)GlcNAc(b1-3)Gal(b1-4)GlcNAc(b1-3)Gal(b1-4)GlcNAc
How it was run: as §1

[21] = biological target: Gal(b1-4)GlcNAc(b1-3)Gal(b1-4)[Fuc(a1-3)]GlcNAc(b1-3)Gal(b1-4)[Fuc(a1-3)]GlcNAc
How it was run: as §1

[22] = biological target: Gal(b1-4)GlcNAc(b1-3)GalNAc
How it was run: as §1

[23] = biological target: Gal(b1-4)GlcNAc(b1-3)[Gal(b1-4)GlcNAc(b1-6)]Gal(b1-4)GlcNAc
How it was run: as §1

[24] = biological target: Gal(b1-4)GlcNAc(b1-3)[Gal(b1-4)GlcNAc(b1-6)]GalNAc
How it was run: as §1

[25] = biological target: Gal(b1-4)GlcNAc(b1-3)[GlcNAc(b1-6)]Gal(b1-4)GlcNAc
How it was run: as §1

[26] = biological target: Gal(b1-4)GlcNAc(b1-6)Gal(b1-4)GlcNAc
How it was run: as §1

[27] = biological target: Gal(b1-4)GlcNAc(b1-6)GalNAc
How it was run: as §1

[28] = biological target: Gal(b1-4)GlcNAc(b1-6)[Gal(b1-3)]GalNAc
How it was run: as §1

Gal3S(b1-3)GalNAc = biological target: Gal3S(b1-3)GalNAc
How it was run: as §1

Gal3S(b1-3)GlcNAc = biological target: Gal3S(b1-3)GlcNAc
How it was run: as §1

[29] = biological target: Gal3S(b1-3)[Fuc(a1-4)]GlcNAc
How it was run: as §1

Gal3S(b1-4)Glc = biological target: Gal3S(b1-4)Glc
How it was run: as §1

Gal3S(b1-4)Glc6S = biological target: Gal3S(b1-4)Glc6S
How it was run: as §1

Gal3S(b1-4)GlcNAc = biological target: Gal3S(b1-4)GlcNAc
How it was run: as §1

Gal3S(b1-4)GlcNAc6S = biological target: Gal3S(b1-4)GlcNAc6S
How it was run: as §1

B1: PEB3 (Campylobacter jejuni), Q0PBL7 (protein)
chain: MKKIITLFGACALAFSMANADVNLYGPGGPHTALKDIANKYSEKTGVKVNVNFGPQATWFEKAKKDADILFGASDQSALAIASDFGKDFNVSKIKPLYFREAIILTQKGNPLKIKGLKDLANKKVRIVVPEGAGKSNTSGTGVWEDMIGRTQDIKTIQNFRNNIVAFVPNSGSARKLFAQDQADAWITWIDWSKSNPDIGTAVAIEKDLVVYRTFNVIAKEGASKETQDFIAYLSSKEAKEIFKKYGWRE
glycan array binding signal (z-score) [1]: -1.27 | glycan array binding signal (z-score) [2]: 1.35 | glycan array binding signal (z-score) [3]: -0.776 | glycan array binding signal (z-score) [4]: -0.497 | glycan array binding signal (z-score) [5]: -0.05 | glycan array binding signal (z-score) (Gal(b1-4)Glc): -1.22 | glycan array binding signal (z-score) (Gal(b1-4)Glc6S): -0.518 | glycan array binding signal (z-score) (Gal(b1-4)GlcNAc): -0.089 | glycan array binding signal (z-score) [6]: -0.204 | glycan array binding signal (z-score) [7]: 2.37 | glycan array binding signal (z-score) [8]: 0.498 | glycan array binding signal (z-score) [9]: 1.56 | glycan array binding signal (z-score) [10]: -0.682 | glycan array binding signal (z-score) [11]: -0.506 | glycan array binding signal (z-score) [12]: -0.494 | glycan array binding signal (z-score) [13]: 0.783 | glycan array binding signal (z-score) [14]: -1.06 | glycan array binding signal (z-score) [15]: 0.173 | glycan array binding signal (z-score) [16]: 0.559 | glycan array binding signal (z-score) [17]: 0.486 | glycan array binding signal (z-score) [18]: 0.676 | glycan array binding signal (z-score) [19]: -1.22 | glycan array binding signal (z-score) [20]: -0.268 | glycan array binding signal (z-score) [21]: 0.634 | glycan array binding signal (z-score) [22]: -0.781 | glycan array binding signal (z-score) [23]: -0.199 | glycan array binding signal (z-score) [24]: -0.191 | glycan array binding signal (z-score) [25]: -0.25 | glycan array binding signal (z-score) [26]: -0.012 | glycan array binding signal (z-score) [27]: -0.031 | glycan array binding signal (z-score) [28]: 0.227 | glycan array binding signal (z-score) (Gal3S(b1-3)GalNAc): -1.28 | glycan array binding signal (z-score) (Gal3S(b1-3)GlcNAc): 1.88 | glycan array binding signal (z-score) [29]: -0.137 | glycan array binding signal (z-score) (Gal3S(b1-4)Glc): -1.17 | glycan array binding signal (z-score) (Gal3S(b1-4)Glc6S): -0.419 | glycan array binding signal (z-score) (Gal3S(b1-4)GlcNAc): -0.295 | glycan array binding signal (z-score) (Gal3S(b1-4)GlcNAc6S): 0.158
